In paper PMC10163288:
This is one part of the list.

B1: il2ra_site2_2erj_sap_22_mot_HHH_b1_00004_af2_000000098_0001_20_37_H_._HHH_b2_02853_0001_0000500009_0000001_0_0001 (protein)
chain: SSSSDKLHRLYELAVLLMHLVARNDREEFEKVVEEAEELAEELKSDSAKEAIEALERKLGSSSSS
B2: il2ra_site2_3nfp_normal_mot_HHH_b2_02437_000000052_0001_42_56_H_._HHH_b2_03460_af2_0001_0000400013_0000001_0 (protein)
chain: SSSSDVEERVEELLEQAERLFKEGDEEEAERFLAEAVQLAFENRDTELFVLVAEVLYRLASSSSS
B3: il2ra_site1_2b5i_sap_19_mot_HHH_b1_08546_af2_000000241_0001_22_37_H_._HHH_b1_05409_0001_0000300014_0000001_0_0001 (protein)
chain: SSSSDEEEAEELFHEASRAWKNGNPEEAEELLEKALELAERENDETAERDIRFMLEHVRQSSSSS
B4: il2ra_site2_2erj_normal_mot_90f6a21de4ed711cb697bb9f61d9c40c_0001_af2_000000135_0001_36_50_H_._HHH_b2_04566_af2_0001_0000800023_0000001_0_af2pred_0001_af2pred (protein)
chain: SSSDEEELQEELERLVEELVKELGLSQRLERFLRLQVELLIEQGASREEAERFIKASAKLLSSSS
B5: il2ra_site1_2b5i_normal_mot_HHH_b1_03543_af2_000000000_0001_42_54_H_._HHH_b1_06556_af2_0001_0000200023_0000001_0 (protein)
chain: SSSSDDRVDELFRKASRLYQNGNPEEAKEVVEKALELAEELGDEKLREELEFMLERIERARSSSS
B6: il2ra_site1_2b5i_sap_10_mot_HHH_b1_01192_000000046_0001_1_19_H_._520760a1b3033c0d7e8c6ec61dbb0d93_0001_1_0001_0000200013_0000001_0_0001 (protein)
chain: SSSSSTQRAFEASLRLLESALEQIDDEEVRERVEQLLEEAREKNDKRLLREAMRLAQEYLSSSSS
B7: il2ra_site1_2b5i_sap_15_mot_8958d2aaae642190dac4a9460e01c591_0001_af2_000000060_0001_1_13_H_._HHH_b2_06679_af2_0001_0000300018_0000001_0_0001 (protein)
chain: SSSSNEEARELQELFHRADELDKQGNEEEARKVLEEAEELAEEANSRAILLFVRWALEQFSSSSS
B8: il2ra_site1_3nfp_sap_15_mot_HHH_b1_01417_af2_000000204_0001_1_19_H_._9dba988b99a1581a42d8501449c0ed8b_0001_0001_0000500055_0000001_0_0001_af2pred_0001_af2pred (protein)
chain: SSSSSKLERLSKLARELYEARKNGDKEEARELAEELLELAEELNDRIARLLAERFERLLSSSSSS
B9: il2ra_site2_3nfp_normal_mot_HHH_b1_05437_000000005_0001_40_57_H_._HHH_b1_02636_af2_0001_0000500018_0000001_0 (protein)
chain: SSSSDEAEERVKELLERAEEARKRGDPFKAFALLAEALFIAWQLGDEELIQEVSEVTEHLRSSSS
B10: il2ra_site2_3nfp_normal_mot_HHH_b1_06613_af2_000000098_0001_23_40_H_._72a79b14e1a0e827e78e129a6f5f8f0c_0001_1_0001_0000300023_0000001_0 (protein)
chain: DRELSQRIFELAERGDPVAHSLFALLADVRYKGDPELRELLEEALEALERGNPEEAKEIVHKALR
B11: il2ra_site2_2erj_normal_mot_HHH_b2_01353_af2_000000049_0001_23_39_H_._HHH_b2_08022_af2_0001_0000200007_0000001_0 (protein)
chain: SSSDEEEKVERLIEEAEELLKEGNPEEALRVLRRAAELAFRLNNEELFSAIAELTEEIARRSSSS
B12: il2ra_site2_3nfp_normal_mot_HHH_b2_05281_000000198_0001_39_56_H_._HHH_b1_08050_af2_0001_0000300011_0000001_0 (protein)
chain: SSSSSEELEELLRELEELLKKGDEEEFRRLLAEIVHLAFKLRDPRIFYLVAELAFEFHQRESSSS
B13: il2ra_site1_2b5i_sap_10_mot_HHH_b1_08745_af2_000000166_0001_39_57_H_._67a4efabeed6c13c80d2eeecdf405411_0001_0001_0000200015_0000001_0_0001_af2pred_dldesign_0_af … (protein)
chain: SSSSSDPEEVRRRVEELIERARELADPAEAARVLFEALYVARAGRDEELIAEVEAVYKELSSSSS
B14: il2ra_site1_2b5i_sap_16_mot_2cbe48e66a1f39b3fed734b245ab0a04_0001_000000015_0001_17_31_H_._HHH_b2_01962_af2_0001_0000200007_0000001_0_0001_af2pred_dldesign_0_af … (protein)
chain: SSSSSDPVAEVEALIERARALHAAGRRREALAALDEAYKLADALNDEELADRIFDLAKELSSSSS
B15: il2ra_site2_2erj_normal_mot_HHH_b2_01204_af2_000000056_0001_19_34_H_._HHH_b2_07712_0001_0000100005_0000001_0 (protein)
chain: SSSSSSDEERVEELLERAKEIEDLREAYKLLVEALRIASESNNDELQELIAEVFEELASSSSSSS
B16: il2ra_site1_2b5i_normal_mot_9ebc464cd7f6471d5ebf9a8082ac34f1_0001_af2_000000289_0001_54_65_H_._HHH_b2_05733_0001_0000300009_0000001_0_af2pred_dldesign_0_af2pred (protein)
chain: SSSSAEKGRRARELAEAAEEAWKKGDKEELEKLLEELRKLAEETKDKFLKLLVEQIEAELSSSSS
B17: il2ra_site1_1z92_sap_21_mot_HHH_b2_04969_af2_000000243_0001_39_51_H_._d6c57d4070daa34a689ce99642eedc3a_0001_af2_0001_0000200006_0000001_0_0001 (protein)
chain: SSSSSSEEELVEQVLELFHEAARIQDRREVRRLLEEALELAREANNPSLEKDVEKYLEFLSSSSS
B18: il2ra_site1_3nfp_normal_mot_HHH_b2_06121_000000007_0001_22_38_H_._HHH_b2_01497_af2_0001_0000100013_0000001_0_af2pred_0001_af2pred_1_swapped (protein)
chain: SSSSSEVEEEVQKLLEEAKELDEKGNSEEARKVAERAFELIRETGDDELFRLLMEWVKKNSSSSS
B19: il2ra_site2_2erj_sap_19_mot_HHH_b1_05749_af2_000000010_0001_23_39_H_._HHH_b2_05247_0001_0000300017_0000001_0_0001 (protein)
chain: SSSDEELRELYELAEEAIRLIAENDPEEAKKVVEELEELAREVDSKNAEEIAEALEELVRRLKSS
B20: il2ra_site1_2b5i_normal_mot_HHH_b2_06952_000000244_0001_39_53_H_._HHH_b2_05445_0001_0000100001_0000001_0_af2pred_dldesign_0_af2pred (protein)
chain: SSSSNVELRKEVHELLLKLNDLSEEERKKALEKAEELAKEAKNPGLLKRVETYRKLLESLSSSSS
B21: il2ra_site1_2b5i_sap_11_mot_HHH_b2_01981_af2_000000043_0001_1_18_H_._HHH_b1_00216_0002_0000800034_0000001_1_0001_af2pred_dldesign_0_af2pred (protein)
chain: SSSSSPEEEAAFEAALAAIRALAKEDRRAALLALNELYKEVAEKGLEELEDRLYELAKELSSSSS
B22: il2ra_site1_2b5i_normal_mot_22370d59370c406a0c205a431f537cfa_0001_af2_000000141_0001_1_31_H_._HHH_b2_04268_af2_0001_0000700031_0000001_0 (protein)
chain: SSSSSREEAHKVSEVIWRLIEELGLSEEDEHILTRLAVRLLWRGVSEEEIEELLEEEAKRLSSSS
B23: il2ra_site1_3nfp_normal_mot_HHH_b1_00233_000000159_0001_1_17_H_._HHH_b1_02182_0001_0000300006_0000001_0 (protein)
chain: SSSSTEISKIVLRLAEEFNLSHEAAEKLIRLAARLQLRGVSEEEIEELLEELAKELREELSSSSS
B24: il2ra_site2_3nfp_sap_20_mot_HHH_b2_07840_000000026_0001_18_34_H_._HHH_b2_00723_0001_0000100001_0000001_0_0001_af2pred_0001_af2pred (protein)
chain: SSSSSEEVEELIEEVKELLKKGDVEEAERVLQKAALLAREDGDEKLFNLLHELEEEVKRLKSSSS

Target: il2ra, P01589
Assay: yeast display titration

Apparent Kd, inactive:
B1 no binding seen
B2 no binding seen
B3 no binding seen
B4 no binding seen
B5 no binding seen
B6 no binding seen
B7 no binding seen
B8 no binding seen
B9 no binding seen
B10 no binding seen
B11 no binding seen
B12 > 589 nM
B13 no binding seen
B14 no binding seen
B15 no binding seen
B16 no binding seen
B17 no binding seen
B18 no binding seen
B19 no binding seen
B20 > 1170 nM
B21 no binding seen
B22 no binding seen
B23 no binding seen
B24 no binding seen

Random excerpt: 2 entries already listed, in no set order.
Apparent Kd, inactive:
B3 no binding seen
B16 no binding seen
